Test results as given in article doi:10.1101/2024.07.22.24310683.
No constants are given. Whether binding was seen depends on the method and setting. In cells and extracts the contact can be indirect. Here binding means that the protein was enriched with, or labelled near, the bait; the list need not be complete.

Protein sequences, listed by entry. Tags and fused reporters are not part of them. Lines headed by an entry give the natural chain unless they say otherwise; changes in a name come on top. Chains listed by the source or under a name are the forms on record and can include a tag or linker.
HA-tagged wild-type AP2σ2 (Adaptor-Related Protein Complex 2 Sigma-1 Subunit) (P53680, form named): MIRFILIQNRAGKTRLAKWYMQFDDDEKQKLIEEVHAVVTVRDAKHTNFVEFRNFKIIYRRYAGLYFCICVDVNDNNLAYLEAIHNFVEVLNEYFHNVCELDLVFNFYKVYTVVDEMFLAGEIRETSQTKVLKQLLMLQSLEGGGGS
HA-tagged AP2σ2 p.Arg10Trp variant (P53680, form named): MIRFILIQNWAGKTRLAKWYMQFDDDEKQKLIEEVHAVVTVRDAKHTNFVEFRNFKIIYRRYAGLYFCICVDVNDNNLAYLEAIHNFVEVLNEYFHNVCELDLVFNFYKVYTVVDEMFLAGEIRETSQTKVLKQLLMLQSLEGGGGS
UniProt Q0JRZ9: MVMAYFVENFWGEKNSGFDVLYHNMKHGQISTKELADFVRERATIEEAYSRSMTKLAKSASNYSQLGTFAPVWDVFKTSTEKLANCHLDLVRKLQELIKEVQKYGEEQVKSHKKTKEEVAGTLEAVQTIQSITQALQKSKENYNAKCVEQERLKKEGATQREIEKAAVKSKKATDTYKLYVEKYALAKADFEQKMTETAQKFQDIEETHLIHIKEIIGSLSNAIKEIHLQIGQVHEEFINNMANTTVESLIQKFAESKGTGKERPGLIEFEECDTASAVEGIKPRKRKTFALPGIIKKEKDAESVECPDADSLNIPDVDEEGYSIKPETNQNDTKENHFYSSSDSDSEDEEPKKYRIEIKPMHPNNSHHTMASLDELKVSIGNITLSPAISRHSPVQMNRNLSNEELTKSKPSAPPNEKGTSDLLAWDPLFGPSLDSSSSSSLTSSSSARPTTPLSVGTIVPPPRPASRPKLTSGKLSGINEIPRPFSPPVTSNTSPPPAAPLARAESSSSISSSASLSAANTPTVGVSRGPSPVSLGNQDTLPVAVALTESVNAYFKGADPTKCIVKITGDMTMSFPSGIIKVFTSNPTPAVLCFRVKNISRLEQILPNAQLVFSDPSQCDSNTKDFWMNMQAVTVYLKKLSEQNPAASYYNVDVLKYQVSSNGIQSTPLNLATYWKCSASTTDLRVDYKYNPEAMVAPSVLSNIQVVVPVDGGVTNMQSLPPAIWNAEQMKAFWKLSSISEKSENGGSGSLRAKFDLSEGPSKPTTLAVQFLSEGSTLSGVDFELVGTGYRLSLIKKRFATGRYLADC
UniProt Q9NSY1: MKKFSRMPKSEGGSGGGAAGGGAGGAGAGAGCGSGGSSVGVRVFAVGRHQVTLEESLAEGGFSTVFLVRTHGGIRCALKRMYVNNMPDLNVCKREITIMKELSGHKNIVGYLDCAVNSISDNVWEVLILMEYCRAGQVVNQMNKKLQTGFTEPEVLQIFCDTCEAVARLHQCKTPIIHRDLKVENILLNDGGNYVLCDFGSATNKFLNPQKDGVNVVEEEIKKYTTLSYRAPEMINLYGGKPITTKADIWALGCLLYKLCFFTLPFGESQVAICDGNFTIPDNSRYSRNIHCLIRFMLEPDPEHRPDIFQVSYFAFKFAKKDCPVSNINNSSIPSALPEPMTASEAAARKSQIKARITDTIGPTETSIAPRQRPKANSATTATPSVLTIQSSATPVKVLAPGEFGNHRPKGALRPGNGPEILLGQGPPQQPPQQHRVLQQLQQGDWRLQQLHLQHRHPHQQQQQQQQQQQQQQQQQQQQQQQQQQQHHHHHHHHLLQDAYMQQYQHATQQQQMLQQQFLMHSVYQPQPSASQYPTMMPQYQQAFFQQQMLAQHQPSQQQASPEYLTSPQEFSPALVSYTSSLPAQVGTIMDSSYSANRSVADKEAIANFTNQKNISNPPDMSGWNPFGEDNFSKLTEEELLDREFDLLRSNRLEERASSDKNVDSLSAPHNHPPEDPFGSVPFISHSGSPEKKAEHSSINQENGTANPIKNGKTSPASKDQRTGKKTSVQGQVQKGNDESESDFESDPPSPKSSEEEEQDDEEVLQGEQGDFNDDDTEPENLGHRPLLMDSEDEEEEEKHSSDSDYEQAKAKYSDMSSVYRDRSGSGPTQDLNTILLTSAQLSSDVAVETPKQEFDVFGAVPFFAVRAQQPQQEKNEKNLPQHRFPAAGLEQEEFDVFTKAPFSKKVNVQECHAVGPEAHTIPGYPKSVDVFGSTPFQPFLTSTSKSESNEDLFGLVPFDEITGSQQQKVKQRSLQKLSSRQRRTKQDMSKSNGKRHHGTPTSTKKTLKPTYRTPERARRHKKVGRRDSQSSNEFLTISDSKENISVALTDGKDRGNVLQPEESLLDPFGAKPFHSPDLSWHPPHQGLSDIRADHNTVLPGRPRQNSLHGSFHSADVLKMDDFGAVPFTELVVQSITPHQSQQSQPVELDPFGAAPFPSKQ

What was measured:
[1] = target: HA-tagged wild-type AP2σ2 (Adaptor-Related Protein Complex 2 Sigma-1 Subunit) (human) (UniProt P53680); assay: affinity purification with mass spectrometry
[2] = target: HA-tagged AP2σ2 p.Arg10Trp variant (human) (UniProt P53680); assay: affinity purification with mass spectrometry

Question: With “Intersectin 1 (as identified by LC-MS/MS, isoform not told) (from UniProt Q15811-2)” as the molecule, how does the binding [1] read?
Answer: binds

Question: With “Fes/CIP4 homology and mu domain containing endocytic adaptor 2 (from UniProt Q0JRZ9 1-810)” as the molecule, how does the binding [1] read?
Answer: binds

Question: And the binding [2]?
Answer: binds

Question: “Bone morphogenic protein-2 inducible protein kinase (from UniProt Q9NSY1 1-1161)” was tested. Which binding [1] did it give?
Answer: binds

Question: And the binding [2]?
Answer: binds

B1: AP3 subunit beta-1 (protein, UniProt O00203 1-1094)
chain: MSSNSFPYNEQSGGGEATELGQEATSTISPSGAFGLFSSDLKKNEDLKQMLESNKDSAKLDAMKRIVGMIAKGKNASELFPAVVKNVASKNIEIKKLVYVYLVRYAEEQQDLALLSISTFQRALKDPNQLIRASALRVLSSIRVPIIVPIMMLAIKEASADLSPYVRKNAAHAIQKLYSLDPEQKEMLIEVIEKLLKDKSTLVAGSVVMAFEEVCPDRIDLIHKNYRKLCNLLVDVEEWGQVVIIHMLTRYARTQFVSPWKEGDELEDNGKNFYESDDDQKEKTDKKKKPYTMDPDHRLLIRNTKPLLQSRNAAVVMAVAQLYWHISPKSEAGIISKSLVRLLRSNREVQYIVLQNIATMSIQRKGMFEPYLKSFYVRSTDPTMIKTLKLEILTNLANEANISTLLREFQTYVKSQDKQFAAATIQTIGRCATNILEVTDTCLNGLVCLLSNRDEIVVAESVVVIKKLLQMQPAQHGEIIKHMAKLLDSITVPVARASILWLIGENCERVPKIAPDVLRKMAKSFTSEDDLVKLQILNLGAKLYLTNSKQTKLLTQYILNLGKYDQNYDIRDRTRFIRQLIVPNVKSGALSKYAKKIFLAQKPAPLLESPFKDRDHFQLGTLSHTLNIKATGYLELSNWPEVAPDPSVRNVEVIELAKEWTPAGKAKQENSAKKFYSESEEEEDSSDSSSDSESESGSESGEQGESGEEGDSNEDSSEDSSSEQDSESGRESGLENKRTAKRNSKAKGKSDSEDGEKENEKSKTSDSSNDESSSIEDSSSDSESESEPESESESRRVTKEKEKKTKQDRTPLTKDVSLLDLDDFNPVSTPVALPTPALSPSLMADLEGLHLSTSSSVISVSTPAFVPTKTHVLLHRMSGKGLAAHYFFPRQPCIFGDKMVSIQITLNNTTDRKIENIHIGEKKLPIGMKMHVFNPIDSLEPEGSITVSMGIDFCDSTQTASFQLCTKDDCFNVNIQPPVGELLLPVAMSEKDFKKEQGVLTGMNETSAVIIAAPQNFTPSVIFQKVVNVANVGAVPSGQDNIHRFAAKTVHSGSLMLVTVELKEGSTAQLIINTEKTVIGSVLLRELKPVLSQG
Question: What does the source list for B1?
Answer: binding [1]: binds; binding [2]: binds

B2: RalA binding protein 1-associated Eps domain containing protein 1 (protein, UniProt Q96D71 1-796)
chain: MEGLTLSDAEQKYYSDLFSYCDIESTKKVVVNGRVLELFRAAQLPNDVVLQIMELCGATRLGYFGRSQFYIALKLVAVAQSGFPLRVESINTVKDLPLPRFVASKNEQESRHAASYSSDSENQGSYSGVIPPPPGRGQVKKGSVSHDTVQPRTSADAQEPASPVVSPQQSPPTSPHTWRKHSRHPSGGNSERPLAGPGPFWSPFGEAQSGSSAGDAVWSGHSPPPPQENWVSFADTPPTSTLLTMHPASVQDQTTVRTVASATTAIEIRRQSSSYDDPWKITDEQRQYYVNQFKTIQPDLNGFIPGSAAKEFFTKSKLPILELSHIWELSDFDKDGALTLDEFCAAFHLVVARKNGYDLPEKLPESLMPKLIDLEDSADVGDQPGEVGYSGSPAEAPPSKSPSMPSLNQTWPELNQSSEQWETFSERSSSSQTLTQFDSNIAPADPDTAIVHPVPIRMTPSKIHMQEMELKRTGSDHTNPTSPLLVKPSDLLEENKINSSVKFASGNTVADGYSSSDSFTSDPEQIGSNVTRQRSHSGTSPDNTAPPPPPPRPQPSHSRSSSLDMNRTFTVTTGQQQAGVVAHPPAVPPRPQPSQAPGPAVHRPVDADGLITHTSTSPQQIPEQPNFADFSQFEVFAASNVNDEQDDEAEKHPEVLPAEKASDPASSLRVAKTDSKTEEKTAASAPANVSKGTTPLAPPPKPVRRRLKSEDELRPEVDEHTQKTGVLAAVLASQPSIPRSVGKDKKAIQASIRRNKETNTVLARLNSELQQQLKDVLEERISLEVQLEQLRPFSHL
Question: Which binding [1] does the source give for B2 here?
Answer: binds

Question: What about the binding [2] of the same molecule?
Answer: binds
